Assay results: the supplement of paper PMC9254222
What follows is the remainder of the data, with few or none of the highest values.

Tested on: HEK293T (UBE3A T485A transfected, BAR Wnt reporter)
Test: Wnt reporter firefly/Renilla luciferase ratio relative to plate median (fold (linear ratio)); higher = more Wnt/beta-catenin reporter activation
Settings: 24 h
Summary of the method: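 Wnt activity (firefly/Renilla ratio) and cell health (raw Renilla) were read with Dual-Glo luciferase and median-centred plate by plate. HEK293T cells, at 4500 cells/well in white 384-well plates with DMEM plus 10% FBS at 37°C and 5% CO2, carried a transfected BAR firefly luciferase Wnt reporter, TK-Renilla and an expression plasmid. The chemicals were applied by robot at 0.01–100 uM for 24 h, beginning four hours after transfection, and results were averaged across four biological replicates.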

CCCCCCCCc1ccc(O)cc1 [4-Octylphenol]
Wnt reporter firefly/Renilla luciferase ratio (concentration: 0.1 uM): 1.02 | Wnt reporter firefly/Renilla luciferase ratio (concentration: 1 uM): 1.06 | Wnt reporter firefly/Renilla luciferase ratio (concentration: 10 uM): 0.827 | Wnt reporter firefly/Renilla luciferase ratio (concentration: 100 uM): 1.27
